The source of these data is patent publication US20250026792A1, “SELF-ASSEMBLING PEPTIDES WITH HYALURONIC ACID BINDING DOMAINS AND METHODS OF USE THEREOF” (Northwestern University, priority 2022, published 2025).

Amino acid sequences for entries named in this document (tags omitted). A change or cut given only in a name is not applied to a line headed by its entry.
UniProt P02463: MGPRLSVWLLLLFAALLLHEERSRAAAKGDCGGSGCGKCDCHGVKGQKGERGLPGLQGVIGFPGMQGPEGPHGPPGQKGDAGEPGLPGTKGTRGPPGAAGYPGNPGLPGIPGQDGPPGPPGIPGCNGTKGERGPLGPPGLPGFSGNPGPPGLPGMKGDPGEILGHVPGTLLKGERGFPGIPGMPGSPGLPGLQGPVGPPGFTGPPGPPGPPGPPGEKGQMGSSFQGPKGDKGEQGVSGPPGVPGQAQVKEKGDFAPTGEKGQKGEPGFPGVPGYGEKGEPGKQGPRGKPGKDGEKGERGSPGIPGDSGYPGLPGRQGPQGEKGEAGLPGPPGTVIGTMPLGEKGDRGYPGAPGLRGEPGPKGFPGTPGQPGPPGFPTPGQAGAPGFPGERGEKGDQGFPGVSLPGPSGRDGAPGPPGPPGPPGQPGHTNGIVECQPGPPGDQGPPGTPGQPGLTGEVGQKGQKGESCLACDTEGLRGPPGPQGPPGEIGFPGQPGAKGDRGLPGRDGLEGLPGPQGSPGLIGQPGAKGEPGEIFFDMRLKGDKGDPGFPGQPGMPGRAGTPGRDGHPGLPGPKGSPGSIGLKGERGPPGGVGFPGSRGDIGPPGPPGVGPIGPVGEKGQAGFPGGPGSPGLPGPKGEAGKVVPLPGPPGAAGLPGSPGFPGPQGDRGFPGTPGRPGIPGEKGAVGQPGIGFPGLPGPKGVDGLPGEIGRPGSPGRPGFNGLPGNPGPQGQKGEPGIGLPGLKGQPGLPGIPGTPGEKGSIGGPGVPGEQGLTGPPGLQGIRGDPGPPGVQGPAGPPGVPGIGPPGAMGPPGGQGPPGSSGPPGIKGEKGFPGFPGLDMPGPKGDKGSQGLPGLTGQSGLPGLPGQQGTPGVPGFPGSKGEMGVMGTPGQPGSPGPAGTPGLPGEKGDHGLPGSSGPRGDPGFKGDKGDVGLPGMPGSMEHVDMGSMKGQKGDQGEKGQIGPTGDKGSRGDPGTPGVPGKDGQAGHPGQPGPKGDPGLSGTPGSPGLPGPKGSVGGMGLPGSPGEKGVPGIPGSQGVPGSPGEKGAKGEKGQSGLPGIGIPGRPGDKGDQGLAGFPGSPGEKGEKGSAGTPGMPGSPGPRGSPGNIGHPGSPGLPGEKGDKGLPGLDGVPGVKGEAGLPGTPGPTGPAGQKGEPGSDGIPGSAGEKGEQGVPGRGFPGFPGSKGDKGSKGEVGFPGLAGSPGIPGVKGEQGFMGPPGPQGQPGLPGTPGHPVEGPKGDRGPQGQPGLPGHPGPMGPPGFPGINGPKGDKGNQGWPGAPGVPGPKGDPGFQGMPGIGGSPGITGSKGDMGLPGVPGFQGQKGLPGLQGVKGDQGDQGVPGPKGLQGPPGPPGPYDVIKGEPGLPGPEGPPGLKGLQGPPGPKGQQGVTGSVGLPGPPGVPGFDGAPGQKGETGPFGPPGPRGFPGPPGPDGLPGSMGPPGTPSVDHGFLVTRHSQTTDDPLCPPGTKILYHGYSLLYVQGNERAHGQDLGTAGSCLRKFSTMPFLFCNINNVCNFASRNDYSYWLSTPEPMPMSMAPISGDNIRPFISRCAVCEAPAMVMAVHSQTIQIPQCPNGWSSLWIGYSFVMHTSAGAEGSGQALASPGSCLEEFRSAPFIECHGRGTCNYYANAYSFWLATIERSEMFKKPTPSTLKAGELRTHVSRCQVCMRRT
UniProt P02454: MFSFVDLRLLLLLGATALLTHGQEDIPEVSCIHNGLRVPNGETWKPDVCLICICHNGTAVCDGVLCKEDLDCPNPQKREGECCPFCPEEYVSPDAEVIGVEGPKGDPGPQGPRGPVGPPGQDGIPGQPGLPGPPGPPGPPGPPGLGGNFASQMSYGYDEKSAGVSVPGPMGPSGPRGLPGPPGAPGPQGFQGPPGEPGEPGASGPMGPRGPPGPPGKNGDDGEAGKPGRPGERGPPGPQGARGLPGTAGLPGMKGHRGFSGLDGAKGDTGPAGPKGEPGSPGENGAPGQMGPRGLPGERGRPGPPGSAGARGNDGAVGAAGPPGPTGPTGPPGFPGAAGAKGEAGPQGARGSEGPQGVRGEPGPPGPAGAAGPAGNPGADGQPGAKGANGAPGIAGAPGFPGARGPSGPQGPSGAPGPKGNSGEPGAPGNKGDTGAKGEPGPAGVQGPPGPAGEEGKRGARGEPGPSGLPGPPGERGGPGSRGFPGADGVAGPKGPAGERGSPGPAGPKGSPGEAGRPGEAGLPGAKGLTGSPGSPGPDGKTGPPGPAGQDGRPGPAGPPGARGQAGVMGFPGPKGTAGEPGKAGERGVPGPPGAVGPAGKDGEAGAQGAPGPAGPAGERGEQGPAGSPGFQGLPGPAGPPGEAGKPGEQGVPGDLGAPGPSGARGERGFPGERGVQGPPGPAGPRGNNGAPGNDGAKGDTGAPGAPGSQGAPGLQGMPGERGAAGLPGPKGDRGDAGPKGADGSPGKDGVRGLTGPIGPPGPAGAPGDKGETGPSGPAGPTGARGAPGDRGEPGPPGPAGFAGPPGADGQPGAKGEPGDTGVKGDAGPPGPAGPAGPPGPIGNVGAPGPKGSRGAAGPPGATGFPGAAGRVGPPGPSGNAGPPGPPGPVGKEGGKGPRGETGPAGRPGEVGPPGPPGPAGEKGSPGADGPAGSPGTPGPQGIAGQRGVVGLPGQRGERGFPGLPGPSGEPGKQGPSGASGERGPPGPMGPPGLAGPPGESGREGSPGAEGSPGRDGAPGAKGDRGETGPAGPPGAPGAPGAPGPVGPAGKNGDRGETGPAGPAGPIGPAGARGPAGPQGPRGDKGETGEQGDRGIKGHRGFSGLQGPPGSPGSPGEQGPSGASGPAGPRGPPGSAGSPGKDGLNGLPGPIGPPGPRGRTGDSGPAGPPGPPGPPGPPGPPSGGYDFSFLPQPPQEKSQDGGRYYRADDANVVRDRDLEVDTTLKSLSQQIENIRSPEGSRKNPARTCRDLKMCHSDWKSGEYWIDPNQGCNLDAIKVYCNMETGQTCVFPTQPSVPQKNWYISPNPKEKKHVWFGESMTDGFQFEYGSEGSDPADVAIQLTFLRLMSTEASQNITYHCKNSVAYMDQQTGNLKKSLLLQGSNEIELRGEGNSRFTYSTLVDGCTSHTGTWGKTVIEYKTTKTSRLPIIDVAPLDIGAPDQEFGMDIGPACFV

No constants are given. Whether binding was seen depends on the method and setting. Some entries that bind do so weakly or less than the wild type.

For one assay, the target named is T1, collagen type IV (mouse) (mouse, UniProt P02463 28-1669; P08122 26-1707).
T1 construct: IV (mouse)'; Coated and dried on plates at 10 ug/cm2; also called collagen IV
The experiment in a line: plate assay: biotinylated peptide (5.0 mg/ml) on dried ECM coating, streptavidin-488 fluorescence.

In a further assay the target is T2, collagen type I (rat) (rat, UniProt P02454 152-1207; P02466 86-1125).
T2 construct: Coated and dried on 96-well plates at 10 ug/cm2; also called collagen I
The assay is described as above.

As to TNLRNKYTFLARARANLAVRNKQNIKS (N-terminal biotin; free C-terminus) [Peptide BHP4], in the assay with collagen type IV (mouse), the binding entry is recorded as “binds”.

As for TKAKIKHSVKLKAKLRIKLVKRI (N-terminal biotin; free C-terminus) [Peptide 10K], the binding entry in the assay with collagen type I (rat) is recorded as “binds”. Regarding KTKATVKIKNKQKSVNALKQKIVLLSK (N-terminal biotin; free C-terminus) [Peptide 7c], the binding result in the assay with collagen type I (rat) and with collagen type IV (mouse) was “binds” throughout.
